The other results are listed elsewhere or left out.
These sequences were tested against OsWRKY34 (Oryza sativa, UniProt Q0JBA9 1-250) (assay: protein-binding microarray (RPBM); PBS, 2% BSA, 51.3 ng/ul salmon testes DNA, 50 uM zinc acetate, 200 nM TF, 25 C, 1 h; high values mean tight binding). Settings: protein: recombinant; tags: N-terminal polyhistidine and DsRed monomer fusion (pET32a); label: CyDye5-dUTP incorporated in the synthesized complementary strand; 3' TTTTT single-stranded linker to array surface; dsDNA, one strand shown.
In short: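 Transcription factors were made in E. coli BL21-CodonPlus as N-terminal fusions to a polyhistidine tag and DsRed, then purified on Ni–NTA. After primer extension with Cy5-dUTP and blocking with 2% BSA, a custom Agilent array was exposed for 1 h at 25 °C to 200 nM protein in PBS, 2% BSA, salmon testes DNA and 50 µM zinc acetate. Washed arrays were scanned on an Axon 4000B, and the binding signal is per-feature fluorescence intensity in arbitrary units.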

Sequences of proteins named here, by UniProt entry; tags and fusion partners are left off.
UniProt Q0JBA9, entry or part of it: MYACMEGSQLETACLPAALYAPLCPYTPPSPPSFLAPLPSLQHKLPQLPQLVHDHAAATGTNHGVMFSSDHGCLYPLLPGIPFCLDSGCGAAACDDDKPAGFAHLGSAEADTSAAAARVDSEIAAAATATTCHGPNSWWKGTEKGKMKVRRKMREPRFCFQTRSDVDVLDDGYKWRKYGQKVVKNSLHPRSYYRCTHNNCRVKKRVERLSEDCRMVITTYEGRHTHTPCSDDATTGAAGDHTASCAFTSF

Sequence	binding signal
GCAGTCCAGTCCCTGACCTCTCCCCTATTTCCACTCTCGCCGGAGTCACCTAGTGCAG	9560 fluorescence intensity (a.u.)
AGAGTTGTTAAGTACACATGGCTCACCTTTTTTCAGTTACCGGAGTCACCTAGTGCAG	10700 fluorescence intensity (a.u.)
GTACAGCAGCAGCATCAGCATCAGCATATCTATCTACCTACGGAGTCACCTAGTGCAG	8430 fluorescence intensity (a.u.)
CGCCCGCTCGAAACAATCTCCCGCTGCGCTGCGGCGGCGCCGGAGTCACCTAGTGCAG	8170 fluorescence intensity (a.u.)
TGTTTTGTTGGACTTTCTTGGTCACCCAGCACGGCAATTTCGGAGTCACCTAGTGCAG	9480 fluorescence intensity (a.u.)
TCTCCTTCTTCTTATCTGCTACAGCAATTATATATTTTTCCGGAGTCACCTAGTGCAG	8270 fluorescence intensity (a.u.)
CATGCTTTCACCAGATGGTCCTTTTCATTGATAAATGTAACGGAGTCACCTAGTGCAG	8470 fluorescence intensity (a.u.)
GTGATATGTTATGCTGCTGTACCTTTTTTTTTCGCCCGCACGGAGTCACCTAGTGCAG	11400 fluorescence intensity (a.u.)
ACATGTGGGGCCTATTTATTTCTTTTTTTTTAAAAAAAAACGGAGTCACCTAGTGCAG	8480 fluorescence intensity (a.u.)
TCCCTAAATTTTGCTTATTTTCTTGTATATACTGTTTACACGGAGTCACCTAGTGCAG	11900 fluorescence intensity (a.u.)
CCACCACGGACTCCGCCGCCGCTCCCGCCACCGCCACATCCGGAGTCACCTAGTGCAG	10600 fluorescence intensity (a.u.)
CTCTTTTCTTCGATTCTCTTTCGGCTTTGCTTCTTCGGTCCGGAGTCACCTAGTGCAG	12900 fluorescence intensity (a.u.)
AGTTCGGGGTGGTTTAAAGTGTAAAAAAATGTTAATAAAACGGAGTCACCTAGTGCAG	8870 fluorescence intensity (a.u.)
TTAATTTGCTGACATATCTCTTCCGTTCTTGAATATTGATCGGAGTCACCTAGTGCAG	9000 fluorescence intensity (a.u.)
CTCTACTCTCTACTACTACTAGCTTCTGCTGCTTCTTCTCCGGAGTCACCTAGTGCAG	8200 fluorescence intensity (a.u.)
CAGGGGCAGTACTATCACAATTTCAAGTTCACCTGTCTCTCGGAGTCACCTAGTGCAG	8540 fluorescence intensity (a.u.)
TCGTTTTTTTGTGGGTCCTCATCTCCTCTCCTCCCACCACCGGAGTCACCTAGTGCAG	8060 fluorescence intensity (a.u.)
ACACGCCCAGTACACTCACATGCACCCAACTCAACTGCCCCGGAGTCACCTAGTGCAG	9510 fluorescence intensity (a.u.)
GTAATTGACGTGGACTTTTTTTAATTTGAGTATCTATAATCGGAGTCACCTAGTGCAG	8220 fluorescence intensity (a.u.)
ACGACGACGACAAATTTTCCGGTGTGTTTATAATTAATATCGGAGTCACCTAGTGCAG	8620 fluorescence intensity (a.u.)
ACCGCCAAATCGCCAATCTCCCACCTCGTCACGCATGCGTCGGAGTCACCTAGTGCAG	8890 fluorescence intensity (a.u.)

Sequence	binding signal
GCCGCTTCCATCTACTCGACTTGCAACCTGGTCATGAGAACGGAGTCACCTAGTGCAG	10100 fluorescence intensity (a.u.)
CGAGGAGCGGGGTGGGGTCGGAGGCGGGGAGGGAGGACGCCGGAGTCACCTAGTGCAG	16100 fluorescence intensity (a.u.)
ACCAACACGTACCTCCACATTGCAACCCATCCATCCGTCCCGGAGTCACCTAGTGCAG	8320 fluorescence intensity (a.u.)
CAACTCCGCTCGCCAATCCACAGCTGGCCTCCATTTCTTCCGGAGTCACCTAGTGCAG	8870 fluorescence intensity (a.u.)
CCGTGCCCAACGTTTGACCGTCCGTTTTATTTGAAAAATTCGGAGTCACCTAGTGCAG	10800 fluorescence intensity (a.u.)
CGCCGCCCGATCCGCCGCCACCGCCACCGCCACCGCCGGCCGGAGTCACCTAGTGCAG	11400 fluorescence intensity (a.u.)
GTCGTGACCCTCCTTGCCGTCCTCCTCCAAACCGACTTCCCGGAGTCACCTAGTGCAG	9650 fluorescence intensity (a.u.)
GCGTACGTTTTTTCATACCTGGACCCAGATGTATCTTTTCCGGAGTCACCTAGTGCAG	10200 fluorescence intensity (a.u.)
ATCTTGTTGTCTGATTATTGATTTTTCGCGAAACCATTTGCGGAGTCACCTAGTGCAG	11100 fluorescence intensity (a.u.)
CATCCGTGTATAAGTCGGTTTTTAAGTTCGTTCACCTTTGCGGAGTCACCTAGTGCAG	10000 fluorescence intensity (a.u.)
AGGGGAGGGGAGGGGAGCCCTTCGCCGGAGCGGCCAGGTTCGGAGTCACCTAGTGCAG	13600 fluorescence intensity (a.u.)
CGCCTCAGAGGTGGGCGGCAGGGTCTATTTTTATAATTTTCGGAGTCACCTAGTGCAG	9490 fluorescence intensity (a.u.)
CGTCAATTCATTGAGATCTCGGTCAGTTAGTCGGTATCCGCGGAGTCACCTAGTGCAG	8110 fluorescence intensity (a.u.)
GTAAACAAGCGATTCATTAATATTTACATTTCTCGATGCCCGGAGTCACCTAGTGCAG	8090 fluorescence intensity (a.u.)
GGTGGTAGAGGGTAAAAGGTACTGTCACATGTTCATTATTCGGAGTCACCTAGTGCAG	12800 fluorescence intensity (a.u.)
GCACGACGTACCATTGTTGATTATTCTCTACACGCACACACGGAGTCACCTAGTGCAG	8930 fluorescence intensity (a.u.)
CACTCGTACCATGCCATGACTTTCACGAGACCCTTTTTTACGGAGTCACCTAGTGCAG	8040 fluorescence intensity (a.u.)
GACCCACTGACGGGTGGGTCCCATATATTTTATTTTTTTACGGAGTCACCTAGTGCAG	9100 fluorescence intensity (a.u.)
AACCCGACCGTCCGATCCCTCCACGACGGCTCTCAGTCGCCGGAGTCACCTAGTGCAG	8860 fluorescence intensity (a.u.)
AATGTCCACGTCGTAAGTATCAACTAGGTCTATTACAAATCGGAGTCACCTAGTGCAG	9400 fluorescence intensity (a.u.)
CCTCCGGATCTACCGACAATTTTTTTTGCCTCGCCACGTACGGAGTCACCTAGTGCAG	9710 fluorescence intensity (a.u.)

Exported with each value named: part of the list above
GACCCACTGACGGGTGGGTCCCATATATTTTATTTTTTTACGGAGTCACCTAGTGCAG
  binding signal = 9100 fluorescence intensity (a.u.)
AACCCGACCGTCCGATCCCTCCACGACGGCTCTCAGTCGCCGGAGTCACCTAGTGCAG
  binding signal = 8860 fluorescence intensity (a.u.)
AATGTCCACGTCGTAAGTATCAACTAGGTCTATTACAAATCGGAGTCACCTAGTGCAG
  binding signal = 9400 fluorescence intensity (a.u.)

(further entries)

Sequence	binding signal
ATTTAGGTGGCGGTAGCAATCCCCGGGCTTCTTTTCTCCCCGGAGTCACCTAGTGCAG	8330 fluorescence intensity (a.u.)
ATCTAGCCATCATTAATCTCTATGGCTTGATTTCCTATTCCGGAGTCACCTAGTGCAG	10100 fluorescence intensity (a.u.)
ATCCATCCGTTCCGTTTAGTTTGCTCCAAGCGCAAGCGCACGGAGTCACCTAGTGCAG	10500 fluorescence intensity (a.u.)
GAGAGTTTATGCCCGGTCCTTCGAGAACATACACAGCAACCGGAGTCACCTAGTGCAG	8690 fluorescence intensity (a.u.)
CATCCTACTTTGTTGCTGCTTGGAACGCTCCATGCATGTCCGGAGTCACCTAGTGCAG	8580 fluorescence intensity (a.u.)
GAAGAACTGATTTTTGGAGGTGGGGTTCAGCTTGCTGGCTCGGAGTCACCTAGTGCAG	9010 fluorescence intensity (a.u.)
ATGGGACCCACCAACCATTGTCTCTCACTCTCTCCCCTCGCGGAGTCACCTAGTGCAG	8840 fluorescence intensity (a.u.)
ATTCTGCCTCAAAAAGTACTTTCATACTATTTTAATTTTTCGGAGTCACCTAGTGCAG	10400 fluorescence intensity (a.u.)
CTGCCCACCGCGACCCCGTTTTGTCCGCCCTCCGTGCTACCGGAGTCACCTAGTGCAG	11800 fluorescence intensity (a.u.)
CGCCGATGACGACCCGCCATTGTTTTCTCTCTTTCTTTTTCGGAGTCACCTAGTGCAG	12200 fluorescence intensity (a.u.)
TGGCTCCTTTTAAGTTATTCTTCCCAAACAGACATGATTTCGGAGTCACCTAGTGCAG	8660 fluorescence intensity (a.u.)
GTCAGGTGGCAGGCATGTTTGTTCCCTCTCGCCCCTCCTTCGGAGTCACCTAGTGCAG	8240 fluorescence intensity (a.u.)
TATCCATACCTCTCGCCATAACATAATCCGACTTCATTAACGGAGTCACCTAGTGCAG	10400 fluorescence intensity (a.u.)
ATCCGAGGGGAAGTAGGGTTTGGAGGAGGAGGAGGGGAGACGGAGTCACCTAGTGCAG	9320 fluorescence intensity (a.u.)
TTGTATACATGTTTCAAGTTTTTTCTGGTATATTTAGGTTCGGAGTCACCTAGTGCAG	8570 fluorescence intensity (a.u.)
GGGCGTGTGGGCTGTGGCTCTCGTCGTTCTTGGCGCCACCCGGAGTCACCTAGTGCAG	9210 fluorescence intensity (a.u.)
GGTTTTTTCGGGCTTGTCCACTCATACCAGAGCCAACGTACGGAGTCACCTAGTGCAG	9720 fluorescence intensity (a.u.)
GCGTTTCTCTCTATATATTTTTTTTATTTTTTAGCGTAAACGGAGTCACCTAGTGCAG	10400 fluorescence intensity (a.u.)
ACTATTCACATTCAACGTTTGACTGTTCTTTTATTTGAAACGGAGTCACCTAGTGCAG	11200 fluorescence intensity (a.u.)
GAACTCACCTCATCCATTTTTCAATATTGATCATGTCAACCGGAGTCACCTAGTGCAG	10500 fluorescence intensity (a.u.)
ACTGTTGTATGCTATATATTTTTTGTGTGTTGTTGTTTTTCGGAGTCACCTAGTGCAG	14900 fluorescence intensity (a.u.)

Sequence	binding signal
TATATACTCCATATGGCTGGATGCATTGCAAAACAATTTACGGAGTCACCTAGTGCAG	8680 fluorescence intensity (a.u.)
TGTAGCATATCCTTTTTGTGCAACCATCCACGCACATGATCGGAGTCACCTAGTGCAG	8480 fluorescence intensity (a.u.)
TCCCTCTCGCTCACATTCATCTCTCGCTCCGTTCGTCCACCGGAGTCACCTAGTGCAG	8900 fluorescence intensity (a.u.)
AAGCGACGACTTCCTCCCCTCCCACACGCATCCCGTCATCCGGAGTCACCTAGTGCAG	8890 fluorescence intensity (a.u.)
AGTTGATCGGTTGATGCGCTGTCTTTGTTGTTTTGTGGAACGGAGTCACCTAGTGCAG	11700 fluorescence intensity (a.u.)
AACTTCGCCGCCTACACGGCGCTCCTCAACCCGCACGACCCGGAGTCACCTAGTGCAG	9170 fluorescence intensity (a.u.)
TACCTGAGTTATTACTGCAAGGGAGGGAGGGATCAAATGCCGGAGTCACCTAGTGCAG	8130 fluorescence intensity (a.u.)
TCCACTTCTGTCTTCCTTGCTGGATTTGTGATCTTGAATTCGGAGTCACCTAGTGCAG	8390 fluorescence intensity (a.u.)
GACCACGGTGTTTACCATAACCAGCCTGCTTATCTCACACCGGAGTCACCTAGTGCAG	8220 fluorescence intensity (a.u.)
GCCCATTGTTGTTTTTTAATGTCAAAACTGTTTTTTTTTTCGGAGTCACCTAGTGCAG	12900 fluorescence intensity (a.u.)
TAAAGTTCCCGCTAGAGTTAAGTTGACCGTTGTGGAGCCCCGGAGTCACCTAGTGCAG	8790 fluorescence intensity (a.u.)
TAAGTTATACCACTTTGTTATTGATGACTTTTTCAGTTGACGGAGTCACCTAGTGCAG	8330 fluorescence intensity (a.u.)
ACTGTGCAATTGATTTTTTTTCGTCCACATTTAATGCTCCCGGAGTCACCTAGTGCAG	8840 fluorescence intensity (a.u.)
CAAGCACACCAGACACCACACCGAGCCCGCCACGTCCACCCGGAGTCACCTAGTGCAG	10300 fluorescence intensity (a.u.)
GTCCTCCGGCCGCCGCTCCCCACCCGCCGCCGCCGCCGCCCGGAGTCACCTAGTGCAG	8860 fluorescence intensity (a.u.)
CTCCAGCTCCGTCCCCGCGCATAATTAATTGCCTCACTAACGGAGTCACCTAGTGCAG	8180 fluorescence intensity (a.u.)
TCATATTCGTGTTGTTTTTTTAATTAATTTAGCTCACAACCGGAGTCACCTAGTGCAG	8880 fluorescence intensity (a.u.)
CCCTACCCGAGCGGCCACACCCATTTCCCTACTCCCACCCCGGAGTCACCTAGTGCAG	8100 fluorescence intensity (a.u.)
ACATGTGGGCTCCACGTGTTTTGTTTAATTTTTTTTTCTGCGGAGTCACCTAGTGCAG	8480 fluorescence intensity (a.u.)
ACCACTCATTTCACTCACTCAACTCTCTCTCACCCTCAACCGGAGTCACCTAGTGCAG	15100 fluorescence intensity (a.u.)
CATCCCCAAGCCTTGTTGTCTGCATGGAGCCATCACAATCCGGAGTCACCTAGTGCAG	10500 fluorescence intensity (a.u.)

Exported as labelled records: part of the list above.
TCCACTTCTGTCTTCCTTGCTGGATTTGTGATCTTGAATTCGGAGTCACCTAGTGCAG
  binding signal: 8390 fluorescence intensity (a.u.)
GACCACGGTGTTTACCATAACCAGCCTGCTTATCTCACACCGGAGTCACCTAGTGCAG
  binding signal: 8220 fluorescence intensity (a.u.)

Reference: publication PMC7819943, “Rice protein-binding microarrays: a tool to detect cis-acting elements near promoter regions in rice”
